{"source": "paper PMC8137473", "about": "“Preclinical trial of a MAP4K4 inhibitor to reduce infarct size in the pig: does cardioprotection in human stem cell-derived myocytes predict success in large mammals?” (Basic Research in Cardiology, 2021)", "tested_on": "porcine model of MI", "experiment": "efficacy study: convertible ventricular fibrillation and defibrillation", "format": "in vivo, swine", "experimental": "Investigators involved in the experimental protocol and analysis of the data were blinded to the treatment status of each pig. Animals were randomly assigned to the treatment groups in two blocks, using a random number series generated online. To control further for potential investigator bias, inclusion and exclusion criteria were formulated prior to the onset of the study. Only healthy pigs weighing 38–48 kg, with a body temperature between 37.0 and 40.0 °C at the start of surgical preparation, were included. Exclusion criteria were: (i) Encountering ventricular fibrillation (VF) during the experimental protocol that could not be converted to sinus rhythm within 2 min. (ii) Encountering VF > 4 times before starting the drug or vehicle infusion. (iii) Developing progressive pump failure (mean arterial pressure (MAP) < 30 mmHg) during first 30 min of reperfusion. (iv) Incomplete coronary artery occlusion (CAO) at the end of occlusion, verified by contrast dye injection. (v) Aberrant anatomy, producing technical difficulties that prevented successful catheterization. (vi) AAR < 15% of the LV. […] This was not foreseen in the initial design of the exclusion criteria and was not then an exclusion criterion. However, in view of the risk of preconditioning the heart during this episode of VF, we chose to stop the procedure and add the further criterion “Encountering VF prior to the onset of the ischemia–reperfusion protocol.” Following any exclusions as above, modifications were made where necessary to ensure that the two treatment groups remained appropriately balanced for sex and weight. […]\nThe LAD was catheterized with a standard clinical guiding catheter (JL3.5, 6F, Medtronic, Minneapolis, MN), and quantitative coronary angiography (CAAS, PIE Medical, Maastricht, The Netherlands) was performed following 2 mg isosorbidedinitrate (Cedocard, Nycomed, Hoofddorp, The Netherlands) and using iodixanol as contrast agent (Visipaque™, GE Healthcare BV, Eindhoven, The Netherlands). […] Heart rate, aortic blood pressure, and ECG were monitored until 2 h of reperfusion."}
{"smiles": "COCCOc1ccc(-c2cn(-c3ccccc3)c3ncn(COP(=O)(O)O)c(=O)c23)cc1", "note": "[DMX-10001]", "values": [{"measurement": "Convertible VF, No. of defibrillation shocks", "setting": "Occlusion 0-40 min", "value": "3.1 ± 1.6"}, {"measurement": "Convertible VF, No. of episodes", "setting": "Occlusion 0-40 min", "value": "1.0 ± 0.0"}, {"measurement": "time within which sinus rhythm was restored", "setting": "VF during CAO, prior to treatment", "value": "69 ± 34", "unit": "s"}]}
